Data as given in patent US5739334A (Istituto Ricerca Francesco Angelini S.p.A., priority 1992, dated 1998).
Read-outs that look alike come from different tables or passages of the source.

SMILES: O=c1n(CCCN2CCN(c3cccc(Cl)c3)CC2)nc2ccccn12 [trazodone]
- % inhibition, alpha 2 (alpha 2; C = 10^-5 M): 75.1%
- % inhibition, alpha 2 (alpha 2; C = 10^-7 M): less than 45.0%
- % inhibition, serotonin 1 (serotonin 1; C = 10^-5 M): 79.8%
- % inhibition, serotonin 1 (serotonin 1; C = 10^-7 M): less than 45.0%
- % inhibition, sigma (sigma; C = 10^-5 M): 81.7%
- % inhibition, sigma (sigma; C = 10^-7 M): less than 45.0%
